Test results: publication PMC4359766
No constants are given. Whether binding was seen depends on the method and setting. In cells and extracts the contact can be indirect. Where a sequence is shown, tags or fusion partners need not be part of it.

What was measured:
GST-BRCA1 (1501-1861) = target: T1, GST-BRCA1 (1501-1861) (UniProt P38398); experiment: pull-down; 1 ug GST fusion on beads rotated overnight at 4°C with whole cell extract (1 mg) of Flag-Tat101-transfected TZM-bl cells in 500 ul lysis buffer; GST-BRCA1 beads washed with TNE300, TNE150, TNE50 + 0.1% NP-40; GST-Tat beads washed with TNE150 once and TNE50 twice + 0.1% NP-40; western blot anti-Flag and anti-BRCA1; only the target purified
T1 sequence: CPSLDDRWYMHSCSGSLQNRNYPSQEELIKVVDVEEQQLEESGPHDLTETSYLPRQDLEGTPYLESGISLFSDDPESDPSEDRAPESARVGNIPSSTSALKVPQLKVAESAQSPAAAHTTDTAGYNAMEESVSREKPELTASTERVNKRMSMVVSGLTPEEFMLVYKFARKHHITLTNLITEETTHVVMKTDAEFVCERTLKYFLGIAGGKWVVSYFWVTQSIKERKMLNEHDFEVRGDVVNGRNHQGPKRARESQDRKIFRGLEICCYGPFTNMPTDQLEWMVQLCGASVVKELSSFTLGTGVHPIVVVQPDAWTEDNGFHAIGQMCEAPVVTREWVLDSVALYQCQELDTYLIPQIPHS

GST-BRCA1 (697-1276) = target: T2, GST-BRCA1 (697-1276) (UniProt P38398); experiment: as above
T2 sequence: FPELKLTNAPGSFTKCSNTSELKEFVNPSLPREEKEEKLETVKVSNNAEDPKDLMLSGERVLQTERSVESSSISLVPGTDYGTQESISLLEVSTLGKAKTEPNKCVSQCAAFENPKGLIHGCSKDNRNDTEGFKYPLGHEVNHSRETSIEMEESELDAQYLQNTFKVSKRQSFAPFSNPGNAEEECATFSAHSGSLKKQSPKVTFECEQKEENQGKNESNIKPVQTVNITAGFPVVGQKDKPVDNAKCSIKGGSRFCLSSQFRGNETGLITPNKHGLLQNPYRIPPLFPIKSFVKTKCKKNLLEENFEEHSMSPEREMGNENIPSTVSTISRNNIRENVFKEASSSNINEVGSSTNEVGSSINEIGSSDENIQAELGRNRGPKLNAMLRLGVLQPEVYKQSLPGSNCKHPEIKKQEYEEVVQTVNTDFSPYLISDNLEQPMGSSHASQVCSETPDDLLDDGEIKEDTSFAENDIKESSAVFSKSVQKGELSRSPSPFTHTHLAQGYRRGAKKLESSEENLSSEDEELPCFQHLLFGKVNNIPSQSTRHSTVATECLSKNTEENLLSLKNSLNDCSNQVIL

## Flag-Tat101 (HIV-1)
GST-BRCA1 (1501-1861)
  binding: no binding
GST-BRCA1 (697-1276)
  binding: no binding
